According to PMC4871572:

Target: T1, EGFP-tagged rat EIPR1 (rat) (UniProt Q5PPK9)
T1 sequence: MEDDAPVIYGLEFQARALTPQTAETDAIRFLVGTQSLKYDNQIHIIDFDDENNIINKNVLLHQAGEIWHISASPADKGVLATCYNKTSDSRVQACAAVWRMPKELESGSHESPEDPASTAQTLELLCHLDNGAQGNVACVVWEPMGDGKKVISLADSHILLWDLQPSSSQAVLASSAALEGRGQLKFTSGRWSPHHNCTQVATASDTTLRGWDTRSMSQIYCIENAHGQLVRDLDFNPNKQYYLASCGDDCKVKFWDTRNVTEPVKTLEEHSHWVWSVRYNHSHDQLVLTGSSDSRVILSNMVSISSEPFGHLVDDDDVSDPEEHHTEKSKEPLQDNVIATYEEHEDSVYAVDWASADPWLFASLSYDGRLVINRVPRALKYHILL
Assay: affinity purification with mass spectrometry; EIPR1::GFP or GFP transfected into 832/13 cells; lysis in 50 mM Tris pH 7.5, 150 mM NaCl, 1% NP-40; captured on anti-GFP nanobody magnetic beads 2 h at 4°C; washes with 300 mM NaCl, 1% NP-40; hits of GFP control (or CCCP1::GFP and RUNDC1::GFP) pulldowns subtracted; two independent pulldowns

- binding: binds
B1: VPS51 (protein, UniProt F1M4I4 1-782)
chain: MAAAAAVGPGLGSGPGDSPEGSEADAPERRRKAHGMLKLYYGLSEGEATGHSAGSDPLDPTDLNGAHFDPEVYLDKLRRECPLAQLMDSETDMVRQIRALDSDMQTLVYENYNKFISATDTIRKMKNDFRKMEDEMDRLATNMAVITNFSARISATLQDRHERITKLAGVHALLRKLQFLFELPSRLTKCVELGAYGQAVRYQGRARAVLQQYQHLPSFRAIQDDCQVITARLAQQLRQRFREGCSGAPEQAECVELLLALGEPAEELCEEFLAHARGRLEEELSSLETELGPSPPAPDVLEFTDRGGNGFVGGLCQVAAAYQELFAAQGPAGAEKLAAFAQELGGRYFALVERRLAQEQGGSDNSLLVRALDRFHRRLRAPGALLAAAGLSESATEIVERVARERLSHHLQGLKAAFLSCLTDVRQALAAPRLAGKEGPSLAELLANVASSILSHIKASLASVHLFTAKEVSFSNKPYFRGEFCSQGVREGLIVGFIRSMCQTAQGFCDSPGEKGGATPPALLLLLSRLCLDYETATISYILTLTDEQFLVQDQSPVTPVSTLCAEARETARRLLTHYVKVQGLVISQMLRKSVETRDWLSTLEPRNVRAVMKRVVEDTTAIDVQVGLLYEEGVRKAQSSDSSKRTFSVYSSSRQQGRYAPSYTPSAPMDTNLLSNIQKLFSERIDVFSPVEFNKVSVLTGIIKISLKTLLECVRLRTFGRFGLQQVQVDCHFLQLYLWRFVADEELVHLLLDEVVASAALRCPDPVPMEPSVVEVICERG

- binding: binds
B2: VPS54 (protein, UniProt Q9JMK8 1-965)
chain: MASSHSSSPVPQGSSSDVFFKKEVDPTKHVRPVQSLPDVCPKEPTVTDQHRWTVYHSKVNLPAALNDPTLAKRESDFFTKTWGLGFVDTEVIPSLYLPQISKEHFIAYQQEISQREKIHERCKNICPPKDTFDRTLLHIHDKSRTDLEQVPKIFMKPDFALDDSLTFNSVLPWSHFNTAGGKGNRDAASSKLLQEKLSHYLDIVEVNIAHQISLRSEAFFHAMTSQHELQDYLKKTSQAVKMLRDKIAQIDKVMCEGSLQILRLALTRNNCVKVSNKLKLMATVHQTQPTVQVLLSTSEFVGALDLIATTQEVLQQELQGVHSFRHLGSQLCELEKLIDKMMIAEFSTYSHSDLNRPLEGECQVLEEERLVSLVFGLLEQRKLNFLEIYGEETIITAKNIIKECVINKVAQVEEIDTDAVVKLADQMRMLNFPQWIDLLKDIFSKFTIFLQRVKATLNVIHSVVLSVLDKNQRTRELEEVSQQRSAGKDNSLDTEVAYLTHEGLFISDAFSEAEPASAAVDTTSQRNTSPHSEPCSSDSVSEPECTTDSSSSKEQTPASATLGGVDIIVSEDMRLTDLELGKLASNIQELLCNASDVCHDRAVKFLMSRAKDGFLEKLNSTEFIALSRLMETYIVDTEQICGRKSTSLLGALQSQANKFVNRFHEERRTKLSLLLDNERWKQADVPAEFQDLVDSIADGKIALPDKKPAATEDRKPADVLVVEGHQYAVVGTVLLLIRIILEYCQCVDNIPSVTTDMLTRLTDLLKYFNSRSCQLVLGAGALQVVGLKTITTKNLALSSRCLQLIVHYIPVIRAHFEARLPRKQWSLLRHFDHITKDYHDHIGEISSKLIAIMDSLFDKLLSRCEVEAPAPSPCFRNICKQMTKMHEAIFDLLPKEQTQMLILRINASYKFHLKKQLSHLNVINDGGPQSGFVTADVAFYTGNLQALKGLKDLDLNMAEIWEQKR

- binding: binds
B3: SNAP29 (protein, UniProt Q9Z2P6 1-257)
chain: MSGYPKSYNPFDDDVEDEDTRPAPWKDARDLPDGPDPPIDRQQYLRQEVLRGPSATAASTSRSLFLMYESEKIGVASSEELVRQRGVLEHTEKMVDKMDQDLKMSQKHINSIKSVFGGFINYFKSKPVEPPPEQNGSIVPQPSSRLKEAINTSKDQESKYQASHPNLRRLHDAELDSVPASTVNTEVYPKNSSLRAYHQKIDSNLDELSVGLGRLKDIALGMQTEIEEQDDILDRLTTKVDKLDVNIKSTEKKVRQL

Results are given in words; binding and its absence hold for the method and conditions named. In cells and extracts the contact can be indirect. A yes stands for co-enrichment or nearness to the bait. Other partners may have been found. Tags and fused reporters may be left off the sequences shown. One block for each binder: values may come before it.
